This assay can be described thus: qHTS Assay for Lipid Storage Modulators in Drosophila S3 Cells.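 For cell number change: cells counted by Cell Tracker Red CMTPX staining in the red channel.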 The settings on record: BODIPY lipid droplet fluorescence, 18-24 h; for cell number change: measured here: cell count max response, cells fed with added oleic acid. An outline of the steps: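 Drosophila S3 cells loaded with oleic acid (400 uM, as added) and compounds at several concentrations; lipid droplets imaged by 488-nm laser-scanning cytometry, 500–530 nm intensity and object ratio to cell channel. Percent activity normalized to 20 uM Triacsin C.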
In general terms: Quantitative high-throughput screening tests each substance at several concentrations.

The mark [1] stands for this setting: measured here: cell number channel AC50, cells fed with added oleic acid.
Where [2] appears, read: measured here: lipid fluorescence (Fed channel) AC50, cells fed with added oleic acid.

Molecules are shown by their SMILES. This is one part of the list. Shown are side measurements of this screen, not its main read-out; they come without a call. Compounds called inactive in the main read-out are mostly missing here. Potencies come from curve fits of mixed quality, noted in brackets.

As to `Cc1ccsc1C(=O)NCC(C)(C)N1CCOCC1`, the cell number change is -19.7%.

`Cc1ccc(-c2nnc(NC(=O)C3=COCCO3)o2)c(C)c1`: the cell number change worked out at 69.9%. Also, the AC50 (as a rule, the concentration at which the activity in the assay is half-maximal) under setting [1] is 16.4 µM [rising, partial curve, poor fit].

Regarding `CCOC(=O)N1CCN(C(=O)c2ccc3nc4ccc(Cl)cc4c(=O)n3c2)CC1`, the AC50 under setting [2] was 6.51 µM [rising, single point].

For `CC(C)CC(C(=O)NC1CCCCC1)N(Cc1cccs1)C(=O)c1snc(C(N)=O)c1N` (stereo not drawn), the cell number change was 121%. The AC50 under setting [1] is 10.3 µM [rising, partial curve]. Moreover, the AC50 under setting [2] was 5.8 µM [rising, full curve].

`COc1ccc(/C=N/NC(=O)c2cccnc2)cc1CN1CCOCC1`: the cell number change turned out to be 8.64%. Under setting [1], the half-maximal activity concentration (AC50) is 2.06 µM [rising, partial curve, poor fit].

For `Cc1ccc(NC(=O)C2C3C=CC4(O3)C2C(=O)N(CCCN2CCCC2)C4C(=O)NC2CCCCC2)cc1Cl` (stereo not drawn), the cell number change turned out to be 30.2%. The AC50 under setting [2] is 23.1 µM [rising, partial curve, poor fit].

As to `CCn1c(SCC(=O)N(C)CCC#N)nc2cc(S(=O)(=O)N3CCOCC3)ccc21`, the cell number change amounted to 2%.

For `CC(C)(C)OC(=O)CC[C@@H](C(=O)N1CCN(C(=O)OC(C)(C)C)CC1)n1cc(C(CO)NC(=O)OC(C)(C)C)nn1` (stereo partly drawn), the cell number change is -29.6%.

Take `O=C(CN1C(=O)/C(=C/c2cccc(Br)c2)SC1=S)N1CCCC1`: the cell number change stood at 44.2%. The AC50 under setting [1] was 29.1 µM [rising, single point]. Moreover, the AC50 under setting [2] is 29.1 µM [rising, single point].

In the case of `O=C(C(=O)N1CCc2ccccc2C1)N1CCc2ccccc2C1`, the cell number change stood at 36%. In addition, the AC50 under setting [1] was 3.66 µM [rising, full curve]. Moreover, the AC50 under setting [2] is 0.92 µM [falling, full curve, poor fit].

`O=C(Cn1c(=O)sc2ccccc21)N1CCOCC1`: the cell number change was 9.49%. The AC50 under setting [2] was 0.00731 µM [falling, full curve].

On to `CCCCSc1nnc(C)c(=O)[nH]1`, for which the cell number change amounted to 10.2%. For the same compound, the concentration at half-maximal activity (AC50) under setting [2] was 6.51 µM [rising, single point].

Turning to `CC(NC(=O)NCCCn1ccnc1)(C(F)(F)F)C(F)(F)F`, under setting [1], the AC50 was 0.92 µM [rising, full curve].

For the compound `CN(C)S(=O)(=O)c1ccc(C(=O)NCC2(N3CCCCC3)CCCCC2)cc1`, the cell number change amounted to 23.4%. Besides, the AC50 under setting [1] was 2.06 µM [falling, partial curve, poor fit].

With `CCCCn1nc2cc(C(=O)NC3CCc4ccccc43)ccc2c1OCC` (stereo not drawn), the cell number change was found to be 5.85%. Also, the AC50 under setting [1] was 0.731 µM [rising, full curve]. Also, the AC50 under setting [2] was 23.1 µM [rising, single point].

For `Cc1ccccc1Nc1nc(N)nc(CN(C)Cc2ccccc2Cl)n1`, the cell number change was -18.6%. Moreover, the AC50 under setting [2] is 2.06 µM [rising, full curve].

On to `CCOC(=O)C1CCN(c2c(NCCCN(CC)Cc3ccccc3)c(=O)c2=O)CC1`, for which the cell number change was -20.7%. The AC50 under setting [2] was 6.51 µM [falling, single point].

Regarding `N#C/C(=C\c1ccc(C#N)cc1)C(=O)c1ccccc1`, the cell number change was -47.6%. For the same compound, the AC50 under setting [1] was 4.61 µM [falling, partial curve]. Moreover, the AC50 under setting [2] was 6.51 µM [falling, partial curve].

Turning to `c1ccc(-n2c(Sc3cnccn3)nnc2-c2cccs2)cc1`, the AC50 under setting [2] was 0.517 µM [rising, partial curve, poor fit].

As to `COc1ccccc1/C=C/CN1CCN(c2ccccc2)CC1`, the cell number change was 89.9%. Under setting [1], the AC50 is 23.1 µM [rising, single point].

Regarding `COC(=O)c1ccc(NC(=O)CSc2nc(C)cc(=O)[nH]2)cc1`, the AC50 runs as follows: under setting [1], 0.82 µM [falling, full curve, poor fit]; under setting [2], 1.84 µM [falling, partial curve].

Regarding `CCCc1ccc(OC(=O)c2cccs2)cc1`, the cell number change was -14.8%.

For the compound `O=C(CSc1nnc(-c2ccccc2O)n1Cc1ccccc1)NNC(=O)c1ccccc1O`, the cell number change was -36.2%. Also, under setting [1], the AC50 is 14.6 µM [falling, single point]. Also, the AC50 under setting [2] is 29.1 µM [falling, single point].

On to `CC(C)Nc1nc(NC(C)C)nc(N(C#N)CCOc2ccc(Cl)cc2Cl)n1`, for which the cell number change is -17%. Besides, the AC50 under setting [2] was 20.6 µM [falling, single point].

`O=C(Nc1ccc(Br)cc1)N1CCCCCCC1`: the cell number change was 4.5%. Further, the AC50 under setting [1] was 0.146 µM [falling, full curve, poor fit].

Consider `C[C@H](NC(=O)C1CC(=O)N(c2ccc(F)cc2)C1)C(=O)N1CCCCC1` (stereo partly drawn), for which the cell number change is -16.2%. Under setting [1], the AC50 is 2.31 µM [rising, partial curve, poor fit]. Under setting [2], the AC50 was 0.411 µM [rising, single point].

Consider `Cc1ccc(N2C(=O)N3[C@H](c4ccc(F)cc4)[C@@H]4C(=O)N(C5CCCCC5)C(=O)[C@@H]4[C@]3(C)C2=O)cc1`, for which the cell number change was found to be 0.647%. Moreover, the AC50 under setting [2] is 7.31 µM [rising, partial curve].

Consider `O=C(Cc1ccc(F)cc1)OCN1C(=O)c2ccccc2C1=O`, for which the cell number change amounted to 13.5%. Also, under setting [2], the AC50 was 29.1 µM [falling, single point].

As to `COc1ccccc1CNC(=O)[C@@H]1CCCN1C(=O)[C@@H]1Cc2ccccc2CN1C(=O)OC(C)(C)C`, the cell number change was 8.02%. The AC50 under setting [2] is 0.58 µM [falling, single point].

For the compound `Cc1cc(C)cc(C(=O)NC(CC(N)=O)c2ccc(N3CCC(Cc4ccccc4)CC3)c([N+](=O)[O-])c2)c1` (stereo not drawn), the cell number change worked out at 12%. Besides, under setting [2], the AC50 was 29.1 µM [falling, single point].

With `O=S1(=O)c2cccc3cccc(c23)N1Cc1nnc(-c2ccccc2Br)o1`, the cell number change was -8.96%.

In the case of `COc1ccc(OC)c(-c2csc(N(C)C(=O)Cc3ccccc3)n2)c1`, the cell number change is -10.9%. For the same compound, the AC50 under setting [2] was 0.411 µM [falling, full curve, poor fit].

On to `Fc1cccc(CCN2CCNC[C@@H]2CC2CCCCC2)c1`, for which the cell number change was 17.4%. Moreover, the AC50 under setting [1] is 1.16 µM [falling, single point]. The AC50 under setting [2] is 1.03 µM [falling, single point].

For `C/C(=N\NC(=S)NCCc1ccccc1)c1cccc(Br)c1`, the cell number change is 10.7%. Also, under setting [2], the AC50 is 17.8 µM [rising, single point].

Consider `CCOc1ccc(-n2ccnc(SCC(=O)Nc3ccc(OC)cc3OC)c2=O)cc1`, for which the cell number change was found to be 65.3%. Also, under setting [1], the concentration at half-maximal activity (AC50) is 1.16 µM [rising, partial curve].

On to `CCCCNc1nnc(SCC(=O)c2c[nH]c3ccccc23)s1`, for which the cell number change is -38.5%. Besides, the AC50 under setting [2] is 18.4 µM [rising, single point].

Turning to `CC1CC(N(C(=O)c2ccc(Cl)cc2)c2ccccc2)c2ccccc2N1C(=O)c1ccco1` (stereo not drawn), the concentration at half-maximal activity (AC50) is, setting by setting: under setting [1], 0.651 µM [falling, single point]; under setting [2], 0.58 µM [falling, single point].

Regarding `COc1ccc(OC)c(CCNC(=O)CS(=O)(=O)Cc2nc(-c3ccc(C)cc3)oc2C)c1`, the cell number change came to 21.2%. The AC50 under setting [2] was 23.1 µM [rising, single point].

Take `O=C(NCc1ccccn1)c1ccc(OC2CCN(Cc3ccc(Cl)s3)CC2)cc1`: the cell number change was 0.567%. Moreover, under setting [1], the AC50 is 6.51 µM [rising, partial curve, poor fit]. Besides, the AC50 under setting [2] is 3.26 µM [rising, partial curve].

Take `OCC[C@@H]1C[C@@H](O)[C@H](O)[C@@]2(Cc3ccccc3CCO2)O1`: the cell number change stood at 4.19%.

In the case of `Cn1c(=S)n(/N=C/c2ccc3c(c2)OCO3)c2ccccc21`, the cell number change stood at 54.4%. The AC50 under setting [1] was 0.00731 µM [rising, full curve, poor fit]. Besides, the AC50 under setting [2] was 1.3 µM [rising, full curve].

Consider `Cc1ccc(C(=O)Nc2nnc(-c3ccncc3)o2)cc1`, for which the AC50 runs as follows: under setting [1], 6.51 µM [falling, single point]; under setting [2], 16.4 µM [falling, single point].

`CCN(CC)S(=O)(=O)c1cc(C(=O)Nc2ccccn2)ccc1C`: the cell number change turned out to be 6.75%.

For the compound `CCOCCCNC(=O)N[C@@H](Cc1ccccc1)C(=O)OC`, the cell number change is -9.11%. The AC50 under setting [2] was 2.31 µM [falling, full curve, poor fit].

Regarding `Cc1c(NC(=O)c2cnn3c2NC(c2ccccc2)CC3C(F)(F)F)c(=O)n(-c2ccccc2)n1C` (stereo not drawn), the cell number change was -9.61%. Besides, under setting [2], the AC50 is 4.11 µM [falling, single point].

Take `O=C(CSc1ncccn1)Nn1cnnc1`: the AC50 under setting [2] is 23.1 µM [falling, partial curve].

With `Cc1cn([C@@H](CCCCNC(=O)OC(C)(C)C)C(=O)NCCCCCCCCCCC(=O)N2CCN(C(=O)OC(C)(C)C)CC2)nn1`, the cell number change was -45.4%. In addition, under setting [1], the AC50 was 9.2 µM [falling, partial curve]. Moreover, the concentration at half-maximal activity (AC50) under setting [2] was 2.06 µM [falling, partial curve].

In the case of `CCc1nnc(NC(=O)C2CC(=O)N(Cc3ccccc3)C2)s1` (stereo not drawn), the cell number change was found to be 3.5%. Further, under setting [1], the AC50 was 0.58 µM [rising, single point].

With `COc1cccc(C2C(C(=O)c3ccco3)=C(O)C(=O)N2CCN(C)C)c1OC` (stereo not drawn), the cell number change was 56.3%. Besides, the AC50 under setting [1] was 11.6 µM [rising, partial curve].

Turning to `COc1cc(/C=N/N=C(/N)c2nonc2N)cc(Br)c1OCc1ccccc1C`, the cell number change was -65.2%. Also, under setting [1], the AC50 was 29.1 µM [falling, single point]. The AC50 under setting [2] was 2.06 µM [rising, partial curve].

As for `COc1ccc(-c2c[n+]3c(n2-c2ccccc2)CCCCC3)cc1`, the cell number change was -40.1%. Under setting [1], the AC50 was 16.4 µM [falling, single point]. Also, the AC50 under setting [2] was 18.4 µM [falling, single point].

Regarding `Cn1c(-c2ccsc2)c(-c2cccs2)c2cc(Br)ccc21`, the cell number change was determined as 20.1%. Under setting [2], the AC50 is 1.16 µM [falling, partial curve].

Take `CCOc1ccc(NC(=O)CN(C)C(=O)C2CCCO2)cc1OCC` (stereo not drawn): the cell number change is -58.6%. Further, the AC50 under setting [1] is 25.9 µM [falling, single point].

Take `CCOc1cc(-c2noc(-c3ccncc3)n2)cc(Br)c1OC`: the cell number change is -5.81%. Further, the AC50 under setting [1] is 0.184 µM [rising, full curve, poor fit]. The AC50 under setting [2] is 13 µM [rising, single point].

For `O=C(COc1ccc(Cl)cc1)NCCSCc1cccc(Cl)c1`, the cell number change was 0.454%. Further, the AC50 under setting [2] is 4.61 µM [rising, partial curve, poor fit].

The values above are taken from PubChem BioAssay AID2685 (National Center for Advancing Translational Sciences (NCATS), 2010).
